Results on three compounds are retold here after patent US20260232745A1, “INHIBITION OF METHANE PRODUCTION IN RUMINANTS” (Loam Bio Pty Ltd, priority 2023, published 2026).

The series can be described thus: Chemical reaction with bromine water (HOBr), bromoform by GCMS. To be noted: 10 mM substrate, 24 hours at room temperature.
In the case of `O=C(O)CC(O)(CC(=O)O)C(=O)O` [citric acid], the conversion to bromoform entry is listed as “Good conversion”.

As to `CC1(C)CC(=O)CC(=O)C1` [dimedone], the conversion to bromoform entry is on record as “Good conversion”.

Regarding `COC(=O)C(C)=O` [methyl pyruvate], the conversion to bromoform result is recorded as “Good conversion”.
